Data source: PubChem BioAssay AID602196 (INSERM, 2012)
Screen: 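Genes whose knock-down alters cisplatin killing of lung cancer cells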. System: human A549 lung cancer cells. Reagent: siRNA pair against human genes. Time to read-out: 48 h transfection before cisplatin; time from cisplatin to read-out not stated. Treatment: cisplatin at a dose killing half of control-siRNA cells; exact dose and duration not given. Measurement: 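Shift in cisplatin death relative to control siRNA, from -50 (all cells die) to +50 (no cells die); siRNAs harmful on their own scored 0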. Scale: two-siRNA summed score (-2 to +2): higher = both siRNAs protect from cisplatin killing; -2 means both sensitise. Active means: 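Each siRNA scores 0 if harmful alone by LDH or WST-1, otherwise +1 if it reduces and -1 if it increases cisplatin killing; a gene is active when both siRNAs agree (sum +2 or -2)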. Meaning of the calls: active = both siRNAs shift cisplatin killing the same way; inactive = no consistent shift, or siRNA harmful alone.
Shown is an unselected part of about 23,000 reagents tested. Of all reagents, 455 (2%) got an active call. 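Active includes both protection and sensitisation; some change values fall well beyond the stated -50 to +50 range.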 The numbers tell different reagents against one gene apart. Not all columns of the deposit are shown. Not given: the amount of reagent.

two-siRNA summed score (-2 to +2), by gene symbol and reagent
CDK4: #1 0 inactive
OPN4: #1 0 inactive
ARHGEF40: #1 -1 inactive
ZFC3H1: #1 0 inactive
LARP1: #1 0 inactive; #2 0 inactive
ODAD4: #1 0 inactive
LOC389185: #1 0 inactive
KDM2A: #1 -1 inactive
ALPK1: #1 1 inactive
SPAG11B: #1 1 inactive
IRX6: #1 1 inactive
BRMS1L: #1 1 inactive
RARRES2: #1 0 inactive
LOC442232: #1 0 inactive
NDUFV2: #1 -1 inactive
TTC23: #1 0 inactive; #2 0 inactive
LOC440555: #1 1 inactive
MYLIP: #1 0 inactive
RPL18A: #1 0 inactive
RO60: #1 2 active
GRN: #1 0 inactive
LOC285711: #1 0 inactive
OR2T8: #1 1 inactive
OSBPL11: #1 0 inactive
ITGA9: #1 0 inactive
SNX14: #1 0 inactive
SLC9C2: #1 0 inactive
LOC440488: #1 1 inactive
DDIAS: #1 0 inactive
GABRB3: #1 0 inactive
C12orf76: #1 1 inactive
LOC440119: #1 0 inactive
KRT75: #1 0 inactive
ANKRD24: #1 0 inactive
CLSTN2: #1 0 inactive
LINC01102: #1 0 inactive
STAMBP: #1 -1 inactive
MYO1F: #1 0 inactive
CHRNA6: #1 0 inactive
FMOD: #1 1 inactive
ERCC8: #1 0 inactive
OPA3: #1 0 inactive
GARIN2: #1 1 inactive
LOC442584: #1 0 inactive
LOC389105: #1 -1 inactive
LOC391800: #1 1 inactive
WAPL: #1 0 inactive
DSCR9: #1 1 inactive
SLC35E1: #1 0 inactive
TAF2: #1 0 inactive
LOC441591: #1 0 inactive
LOC344178: #1 0 inactive
CD38: #1 -2 active
SEC61G: #1 1 inactive
FLJ44796 (retired record): #1 1 inactive

8 of these entries, set out differently.
FMOD
- two-siRNA summed score (-2 to +2): 1
- outcome: inactive

ERCC8
- two-siRNA summed score (-2 to +2): 0
- outcome: inactive

OPA3
- two-siRNA summed score (-2 to +2): 0
- outcome: inactive

GARIN2
- two-siRNA summed score (-2 to +2): 1
- outcome: inactive

LOC442584
- two-siRNA summed score (-2 to +2): 0
- outcome: inactive

LOC389105
- two-siRNA summed score (-2 to +2): -1
- outcome: inactive

LOC391800
- two-siRNA summed score (-2 to +2): 1
- outcome: inactive

WAPL
- two-siRNA summed score (-2 to +2): 0
- outcome: inactive
